Laboratory results: patent US20200165330A1 (ORDER MADE MEDICAL RESEARCH, published 2020)
No constants are given. Whether binding was seen depends on the method and setting. Some entries that bind do so weakly or less than the wild type.

T1: canine VEGFA (VEGF164) (canine, UniProt Q9MYV3-3 27-190)
T1 construct: also called canine VEGF164
T1 sequence (looked up): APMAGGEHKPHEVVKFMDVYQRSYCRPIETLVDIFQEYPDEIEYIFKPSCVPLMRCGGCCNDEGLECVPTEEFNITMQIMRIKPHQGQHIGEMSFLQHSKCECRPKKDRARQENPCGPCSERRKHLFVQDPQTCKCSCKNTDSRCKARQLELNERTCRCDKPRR

T2: human VEGF121 (human, UniProt P15692 207-321)
T2 sequence: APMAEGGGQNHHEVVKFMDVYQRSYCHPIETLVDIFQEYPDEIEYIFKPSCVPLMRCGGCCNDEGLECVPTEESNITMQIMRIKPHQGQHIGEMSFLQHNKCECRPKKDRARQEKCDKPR


How the values were obtained:
canine VEGFA (VEGF164) [1] = target: T1, canine VEGFA (VEGF164); assay: ELISA on immobilized canine VEGFA, antibody serially diluted from 1 µg/ml
[2] = target: T3, Human recombinant VEGF165 (human, UniProt P15692 181-395); assay: ELISA on immobilized human VEGF165, antibody serially diluted from 1 µg/ml
T3 construct: also called rhVEGF165; rhVEGF

canine VEGFA (VEGF164) [3] = target: T1, canine VEGFA (VEGF164); assay: ELISA, canine VEGFA coated at 20 ng/well, antibody serially diluted from 1 ug/ml, peroxidase anti-canine Ig, absorbance 450 nm
Protocol: (§1) Next, after 3 times of washing with 300 μL of 0.02% Tween 20-containing PBS (−) (hereafter, denoted as “PBS-T”), 300 μL of 3% skim milk-containing PBS (−) was dispensed into each well, followed by blocking at 37° C. for 1 hour. […] After washing similarly, TMB Single Solution was added for color development at room temperature. After the reaction was stopped with 1 N sulfuric acid, absorbance at 450 nm was measured using a plate reader (Molecular Devices).

[4] = target: T3, Human recombinant VEGF165; assay: ELISA, human VEGF165 coated at 20 ng/well, antibody serially diluted from 1 ug/ml, peroxidase anti-canine Ig, absorbance 450 nm
Protocol: as §1

[5] = target: T3, Human recombinant VEGF165; assay: ELISA on immobilized rhVEGF165
human VEGF121 [6] = target: T2, human VEGF121; assay: ELISA on immobilized VEGF121, antibody serially diluted from 1 µg/ml
[7] = target: T3, Human recombinant VEGF165; assay: ELISA on immobilized VEGF165, antibody serially diluted from 1 µg/ml
human VEGF121 [8] = target: T2, human VEGF121; assay: ELISA, human VEGF121 coated at 20 ng/well, antibody serially diluted from 1 ug/ml, peroxidase anti-human Ig, absorbance 450 nm
Protocol: (§2) Next, after 3 times of washing with 300 μL of 0.02% Tween 20-containing PBS (−) (hereafter, denoted as “PBS-T”), 300 μL of 3% skim milk-containing PBS (−) was dispensed to each well, followed by blocking at 37° C. for 1 hour. […] After washing similarly, TMB Single Solution was added for color development at room temperature. After the reaction was stopped with 1 N sulfuric acid, absorbance at 450 nm was measured using a plate reader (Molecular Devices).

[9] = target: T3, Human recombinant VEGF165; assay: ELISA, human VEGF165 coated at 20 ng/well, antibody serially diluted from 1 ug/ml, peroxidase anti-human Ig, absorbance 450 nm
Protocol: as §2

binding (canine VEGFA (VEGF164) [1]) | binding [2] | binding (canine VEGFA (VEGF164) [3]) | binding [4] | binding [5] | binding (human VEGF121 [6]) | binding [7] | binding (human VEGF121 [8]) | binding [9] | Binder
binds | binds | binds | binds |  |  |  |  |  | canine-IgGB chimeric KLHb1501 antibody (antibody, V domains shown, also called KLHb1501CC; KLHb1501CC antibody) VH: DVQLQESGPGLVKPSQSLSLTCTVTGYSITSDYAWTWIRQFPGDKLEWMGYISYSGSTRYNPSLKSRISITRDTSKNQFFLHLNSVTTEDTATYFCARGGDYYGSRPWFAYWGQGTLVTVSA VL: QAVVTQESALTTSPGETVTLTCRSSTGAVTISNYANWVQEKPDHLFTGLIGGTNNRAPDVPARFSGSLIGDKAALTITGAQTEDEAIYFCALWYSNHLVFGEGTKLTVLQ
 |  |  |  | binds | binds | binds | binds | binds | human IgG1 chimeric KLHa505 antibody (antibody, V domains shown) VH: QIQLVQSGPELKKPGETVKISCKASGYTFTNYGMNWVKQAPGKGLKWMGWINTYTGEPTYLDDFKGRFAFSLETSASTAYLQINNLKNEDTSTYFCARFSYGITWFFDVWGAGTTVTVSS VL: DIVMSQSPSSLAVSAGEKVTMSCKSSQSLLNSRTRKNYLAWYQQKPGQSPKLLIYWASTRESGVPDRFTGSGSGTDFTLTISSVQAEDLAVYYCKQSYNLYTFGGGTKLEIKT
